Test results taken from the RNAGym collection of RNA variant scans (doi:10.1126/science.aae0568).
Variants at the floor of the assay are shown more often than the library holds them.

B1: tRNA (parent)
chain: GUUCCGUUGGCGUAAUGGUAACGCGUCUCCCUCCUAAGGAGAAGACUGCGGGUUCGAGUCCCGUACGGAACG

Variants of: B1
Assay: yeast fitness relative to wild type (ratio to wild type); higher = fitter; tRNA-Arg(CCU), competitive growth, 37 C, YPD
Outline: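 Amplicons of the tRNA-Arg(CCU) gene were sequenced, 100-nucleotide paired-end, from the start population and from each end population of a pooled yeast competition. The competition, in six parallel replicates, lasted 24 hours in YPD at 37°C. Fitness relative to wild type was calculated from changes in genotype frequencies. Genotypes had to have ≥ 100 starting reads, and estimates < 0.5 were set to 0.5.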

Variant	yeast fitness
G10C C27A G56A G67A	≤ 0.5
G10C C27G A42C C49A U54C	≤ 0.5
G10C C27G U47A	≤ 0.5
G10C C27U C30U	≤ 0.5
G10C C29G A65C	≤ 0.5
G10C C29U C31U A36G	≤ 0.5
G10C C30G C60A	≤ 0.5
G10C C31G G41A	≤ 0.5
G10C C31U	0.78
G10C C33A A40U U54A	≤ 0.5
G10C C33G C62A G67C	≤ 0.5
G10C C33U C62A	≤ 0.5
G10C C34G C55U	≤ 0.5
G10C C49G G56C A70U	≤ 0.5
G10C C60G A70C	≤ 0.5
G10C C62U U64A	≤ 0.5
G10C G12A U13C G63A	≤ 0.5
G10C G18C A45C G56C	≤ 0.5
G10C G18C C30U C62A	≤ 0.5
G10C G25C C55A	0.545
G10C G25C U26C A57G	≤ 0.5
G10C G39C G51A	≤ 0.5
G10C G50A A70U	≤ 0.5
G10C U13A C31A	0.594

Variant	yeast fitness
G10C U13A C55U C61U	≤ 0.5
G10C U13C A36G C49U	≤ 0.5
G10C U13C U53C A65C	≤ 0.5
G10C U16A A20G A37G C46G U59C C60A	≤ 0.5
G10C U16A A65G	≤ 0.5
G10C U16C A20G U54C C55U	≤ 0.5
G10C U16G C31A U32G C66A	≤ 0.5
G10C U28C G44C C55G A69U	≤ 0.5
G10U G17A C24A C66G	0.595
G10U G17A U32C A45C	≤ 0.5
C11A A14C	0.683
C11A A14G U16C A43U G58C C61U	≤ 0.5
C11A A14G U19G A43U U53A C66U	≤ 0.5
C11A A14U	≤ 0.5
C11A A15C C24G U59A G68A	≤ 0.5
C11A A20G C60A	≤ 0.5
C11A A20U C24U U26G C27U A36C A45U C55G	≤ 0.5
C11A A21C C31A C46G	≤ 0.5
C11A A21C C31A G67C	≤ 0.5
C11A A21C C55U C61A C62U G67C	≤ 0.5
C11A A21G C34U A37G A42C	≤ 0.5
C11A A21G C61U	≤ 0.5
C11A A37G C49G	≤ 0.5
C11A A40C A42U C49G C66G	≤ 0.5

Variant	yeast fitness
C11A A40G A65U	≤ 0.5
C11A C22G C29G	≤ 0.5
C11A C22G C30G	≤ 0.5
C11A C22G C31G	≤ 0.5
C11A C22U C30G A65G	≤ 0.5
C11A C24A G48A	≤ 0.5
C11A C27A G50A C62U G63A	≤ 0.5
C11A C27G U35A A43U U54C	0.556
C11A C27U A57U	≤ 0.5
C11A C27U G44C	0.572
C11A C27U G44U	≤ 0.5
C11A C29U A43C A65U	≤ 0.5
C11A C31A C46U A57C C66A	≤ 0.5
C11A C31U U59A	≤ 0.5
C11A C33A	≤ 0.5
C11A C33G C61A	≤ 0.5
C11A C46U G48A C55U U59A	≤ 0.5
C11A C46U U53C A70U	≤ 0.5
C11A C55G A69C	≤ 0.5
C11A C55U G63A	≤ 0.5
C11A C60G	≤ 0.5
C11A G12A C66U	≤ 0.5
C11A G12C U26C G67A	≤ 0.5
C11A G12U U13C A14G G44C C46A C49G	≤ 0.5

Variant	yeast fitness
C11A G17A U35G U59C A70U	≤ 0.5
C11A G23A G39A	≤ 0.5
C11A G23C A65U G68A	≤ 0.5
C11A G23C C49G U53G A57G	≤ 0.5
C11A G23C G39C C61A C62G A65U	≤ 0.5
C11A G23C U32G C34A C66U	≤ 0.5
C11A G25C A45U C66U	≤ 0.5
C11A G25C C29U A65C	≤ 0.5
C11A G67U	0.584
C11A U13A A20G	0.561
C11A U13A A42U A43G C55A	≤ 0.5
C11A U13G C24G C34G G63A A65G	≤ 0.5
C11A U16C C31U A69U	≤ 0.5
C11A U16C G18C A45C A57C G67A	≤ 0.5
C11A U16C G18C C61A	≤ 0.5
C11A U19G	0.669
C11A U26A U54A	≤ 0.5
C11A U54G G68A	≤ 0.5
C11A U59A	0.629
C11A U59C C66U A70C	≤ 0.5
C11G A14C C30U	≤ 0.5
C11G A14G A15U G23C U53A	≤ 0.5
C11G A14G G18C A20U C33U	≤ 0.5
C11G A15C C34U A65C	≤ 0.5

Variant	yeast fitness
C11G A15G G67C	≤ 0.5
C11G A15U A36U C66U	≤ 0.5
C11G A15U C24G G41C C61A	≤ 0.5
C11G A15U C34G C62G	≤ 0.5
C11G A20C A69U	≤ 0.5
C11G A20C C24U C34G A57U	≤ 0.5
C11G A20G A21G G23C C30U C34A G51A U53C	≤ 0.5
C11G A20G A37C A42U	≤ 0.5
C11G A20G C49G	≤ 0.5
C11G A20U C29A C30U C46G	≤ 0.5
C11G A20U G25A C49A C55U	≤ 0.5
C11G A21C C30U	≤ 0.5
C11G A21U C49G	≤ 0.5
C11G A36G G50C	≤ 0.5
C11G A36U G48A G58C U59C	≤ 0.5
C11G A40C C46U C60A	≤ 0.5
C11G A43G A45C G50C C61U	≤ 0.5
C11G A43U A45G U47C	≤ 0.5
C11G C22U C27U U28A G52A C55U	≤ 0.5
C11G C22U C34A A45G	≤ 0.5
C11G C22U C49U U53C G68C	≤ 0.5
C11G C24A	≤ 0.5
C11G C24A C29A C61U	≤ 0.5
C11G C24G C30U A43U C60G A65C	≤ 0.5

Variant	yeast fitness
C11G C24G C31A C46U G48A C49U	≤ 0.5
C11G C24U A57G G68C	≤ 0.5
C11G C24U U54C	≤ 0.5
C11G C27A C34U A42U C55U	≤ 0.5
C11G C27G G67A	≤ 0.5
C11G C27U A36U G48C C49U	0.717
C11G C27U C33G A69C	≤ 0.5
C11G C27U U32A C60U A70C	≤ 0.5
C11G C29A	0.518
C11G C29A C31G	≤ 0.5
C11G C29G G38A G44A C46U	≤ 0.5
C11G C30A	0.588
C11G C30G C31G U32A G58C G63A	≤ 0.5
C11G C30U A37C C46U A57U A69U	≤ 0.5
C11G C30U A43C C49U U64A	≤ 0.5
C11G C30U U35A U53G C62U A70C	≤ 0.5
C11G C31U C33A C66A	≤ 0.5
C11G C34G C60A	≤ 0.5
C11G C34U C55U C66U	≤ 0.5
C11G C46G G52A	≤ 0.5
C11G C49G A57U	≤ 0.5
C11G C55G	0.594
C11G C61A G67A	≤ 0.5
C11G C61G C62U C66U	≤ 0.5

Variant	yeast fitness
C11G C66A	≤ 0.5
C11G C66G	≤ 0.5
C11G G12A A21G	≤ 0.5
C11G G12C A20G A43G A45C C66U A69U	≤ 0.5
C11G G23C A37G A57C	0.979
C11G G23C U35G G39C G50C	≤ 0.5
C11G G38C C61U	≤ 0.5
C11G G41C	0.662
C11G G56C A57G C61G C66U A69G	≤ 0.5
C11G G58C C62U	≤ 0.5
C11G G63U	≤ 0.5
C11G U13C C29U C30U	≤ 0.5
C11G U13G A43G C55U	≤ 0.5
C11G U16A G23C C30U C34U G67U	0.537
C11G U26C C29U C34U C62A C66U	≤ 0.5
C11G U26G C31G	≤ 0.5
C11G U32C C33G	≤ 0.5
C11G U35A C62A C66G	≤ 0.5
C11G U35C	≤ 0.5
C11G U35C A69C	≤ 0.5
C11G U35G C55A G56C C60G	≤ 0.5
C11G U47A G68C	≤ 0.5
C11G U53A C60U	≤ 0.5
